The assay deals with Kog1p, C-terminally FLAG-tagged (KOG1-FLAG) (S. cerevisiae) (UniProt P38873). Kind of assay: affinity purification with mass spectrometry; KOG1-flag captured from yeast lysate (batch glucose or glucose-limited chemostat cultures) on flag antibody conjugated to magnetic protein G beads, not more than 45 min at 4°C; lysis buffer 50 mM HEPES pH 7.5, 150 mM KCl, 0.5% Tween 20; 5 short washes with added 200 mM NaCl; bands cut from SDS gels, nano HPLC/MS/MS.

Sequences of proteins named here, by UniProt entry; tags and fusion partners are left off.
UniProt P38873: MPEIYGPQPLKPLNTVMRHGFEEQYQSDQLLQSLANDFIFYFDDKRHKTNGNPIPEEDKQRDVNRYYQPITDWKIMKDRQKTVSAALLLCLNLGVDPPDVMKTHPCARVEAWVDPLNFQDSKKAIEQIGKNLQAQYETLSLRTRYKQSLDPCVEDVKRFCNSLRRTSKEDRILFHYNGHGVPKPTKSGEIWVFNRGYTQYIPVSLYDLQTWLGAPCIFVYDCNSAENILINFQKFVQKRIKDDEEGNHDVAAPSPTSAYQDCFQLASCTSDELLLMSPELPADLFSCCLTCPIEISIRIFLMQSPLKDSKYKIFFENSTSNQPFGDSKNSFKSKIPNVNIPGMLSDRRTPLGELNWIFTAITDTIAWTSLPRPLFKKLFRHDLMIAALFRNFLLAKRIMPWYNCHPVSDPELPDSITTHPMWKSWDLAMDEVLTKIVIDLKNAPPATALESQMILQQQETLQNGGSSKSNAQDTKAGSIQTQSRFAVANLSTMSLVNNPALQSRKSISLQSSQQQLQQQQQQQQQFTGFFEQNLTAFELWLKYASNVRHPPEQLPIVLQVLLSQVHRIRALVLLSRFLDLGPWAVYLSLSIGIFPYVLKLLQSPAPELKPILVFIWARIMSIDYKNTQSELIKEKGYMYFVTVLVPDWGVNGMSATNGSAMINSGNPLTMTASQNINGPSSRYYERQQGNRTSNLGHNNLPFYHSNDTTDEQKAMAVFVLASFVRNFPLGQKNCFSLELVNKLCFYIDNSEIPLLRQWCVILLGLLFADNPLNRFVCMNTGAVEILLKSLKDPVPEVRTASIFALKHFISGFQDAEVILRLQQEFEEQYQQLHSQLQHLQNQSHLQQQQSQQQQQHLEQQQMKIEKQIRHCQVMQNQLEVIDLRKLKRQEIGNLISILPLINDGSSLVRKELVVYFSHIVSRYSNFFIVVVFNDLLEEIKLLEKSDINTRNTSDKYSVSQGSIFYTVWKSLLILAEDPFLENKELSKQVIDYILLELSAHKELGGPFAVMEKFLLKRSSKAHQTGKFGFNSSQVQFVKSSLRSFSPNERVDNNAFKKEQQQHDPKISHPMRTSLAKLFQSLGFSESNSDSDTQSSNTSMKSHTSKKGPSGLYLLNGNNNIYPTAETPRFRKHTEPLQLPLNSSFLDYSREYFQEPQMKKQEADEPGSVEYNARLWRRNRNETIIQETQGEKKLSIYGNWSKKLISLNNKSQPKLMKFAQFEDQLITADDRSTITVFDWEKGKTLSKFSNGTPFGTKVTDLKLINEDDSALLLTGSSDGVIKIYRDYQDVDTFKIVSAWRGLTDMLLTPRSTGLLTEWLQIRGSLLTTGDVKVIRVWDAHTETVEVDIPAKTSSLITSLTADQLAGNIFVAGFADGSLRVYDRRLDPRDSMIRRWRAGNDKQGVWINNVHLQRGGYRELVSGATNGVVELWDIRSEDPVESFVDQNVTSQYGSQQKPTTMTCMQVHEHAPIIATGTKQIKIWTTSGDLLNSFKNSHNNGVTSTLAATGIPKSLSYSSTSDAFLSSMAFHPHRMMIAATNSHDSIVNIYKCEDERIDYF

No constants are given. Whether binding was seen depends on the method and setting. Binding seen in cells or lysates may run through a third protein. Here binding means that the protein was enriched with, or labelled near, the bait; the list need not be complete.

B1: Lsp1p (protein, UniProt Q12230 1-341)
chain: MHRTYSLRNQRAPTAAELQAPPPPPSSTKSKFFGKASIASSFRKNAAGNFGPELARKLSQLVKTEKGVLRAMEVVASERREAAKQLSLWGADNDDDVSDVTDKLGVLIYELGELQDQFIDKYDQYRVTLKSIRNIEASVQPSRDRKEKITDEIAHLKYKDPQSTKIPVLEQELVRAEAESLVAEAQLSNITREKLKAAYSYMFDSLRELSEKFALIAGYGKALLELLDDSPVTPGEARPAYDGYEASRQIIMDAESALESWTLDMAAVKPTLSFHQTVDDVYEDEDGEEEEEPEIQNGDIPGQVVEEEEVEWTTEVPVDDEAHEADHHVSQNGHTSGSENI
On to B1, for which the binding entry is “binds”.

The record behind these values is publication PMC3197150.
